Measurements reported in paper PMC11749260.
No constants are given. Whether binding was seen depends on the method and setting. In cells and extracts the contact can be indirect. These calls come from enrichment with a bait or labelling near it, and not all partners need be listed. Tags and fused reporters may be left off the sequences shown.

Molecular target: T1, Flag-tagged Sugt1 (suppressor of G2 allele of SKP1 homolog) (UniProt Q9CX34)
T1 sequence: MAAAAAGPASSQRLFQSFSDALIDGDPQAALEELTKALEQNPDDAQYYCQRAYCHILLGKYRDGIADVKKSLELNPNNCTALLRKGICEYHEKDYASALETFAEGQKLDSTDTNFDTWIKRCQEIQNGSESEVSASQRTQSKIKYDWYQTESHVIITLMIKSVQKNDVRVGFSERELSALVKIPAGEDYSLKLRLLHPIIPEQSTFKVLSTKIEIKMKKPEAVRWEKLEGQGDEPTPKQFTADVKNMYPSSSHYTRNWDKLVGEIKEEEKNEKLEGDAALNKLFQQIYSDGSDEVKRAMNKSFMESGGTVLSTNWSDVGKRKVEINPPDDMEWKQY
Experiment: affinity purification with mass spectrometry; Flag-Sugt1 overexpressed in C2C12 myoblasts, IP with anti-Flag magnetic beads, retrieved proteins analysed by LC/MS; cells with empty pcDNA3.1(+) vector as negative control

binding: binds
B1: Trim21 (E3 ubiquitin-protein ligase) (protein, UniProt Q62191 1-470)
chain: MSPSTTSKMSLEKMWEEVTCSICLDPMVEPMSIECGHCFCKECIFEVGKNGGSSCPECRQQFLLRNLRPNRHIANMVENLKQIAQNTKKSTQETHCMKHGEKLHLFCEEDGQALCWVCAQSGKHRDHTRVPIEEAAKVYQEKIHVVLEKLRKGKELAEKMEMDLTMQRTDWKRNIDTQKSRIHAEFALQNSLLAQEEQRQLQRLEKDQREYLRLLGKKEAELAEKNQALQELISELERRIRGSELELLQEVRIILERSGSWNLDTLDIDAPDLTSTCPVPGRKKMLRTCWVHITLDRNTANSWLIISKDRRQVRMGDTHQNVSDNKERFSNYPMVLGAQRFSSGKMYWEVDVTQKEAWDLGVCRDSVQRKGQFSLSPENGFWTIWLWQDSYEAGTSPQTTLHIQVPPCQIGIFVDYEAGVVSFYNITDHGSLIYTFSECVFAGPLRPFFNVGFNYSGGNAAPLKLCPLKM
